Measurements reported in article PMC8685902, “Perception of structurally distinct effectors by the integrated WRKY domain of a plant immune receptor”.

Target: RRS1-R^WRKY+83 with C-terminal 6xHis/3xFLAG tag (Arabidopsis)
Experiment: co-IP; transient coexpression in N. benthamiana; RRS1-R^WRKY+83 (6xHis/3xFLAG) precipitated with anti-FLAG magnetic beads, AvrRps4 variants (4xmyc) detected by blot

B1: full-length AvrRps4 with C-terminal 4xmyc tag (wild type) (protein, UniProt Q52432 1-220)
chain: MTRISTSSVNSSFSYSAPAEEAQNRVSSAPTNSSPPGTTTAVAQASEGQKKPGAVLSMHAQRLRQLCESSSHQYRQNALLAKSFDAQRLDINTQAGPSNSPHLNALNKLQQRDFKPAAGGLEIPFTPKSLLGGGKRVYQIGSSSRDVQVCPRGAGAALRQEIEDKQLMVNNLTDELQDAIDEANPAEIANTSQQLRHARADLADLQRRFAVLRNEDRRIN
B1 was tested, and the binding was “binds”.

No constants are given. Whether binding was seen depends on the method and setting. Binding seen in cells or lysates may run through a third protein. A result given as binding can be weak or reduced; the word gives no strength. Sequences can lack the tags named with a protein.
